From PubChem BioAssay AID504444 (National Center for Advancing Translational Sciences (NCATS), 2011)
Among all 360,000 compounds or so, about 7,500 (2.1%) were called active. Inconclusive results, whose numbers are uncertain, are shown with a selection of clear calls. The call rests on the fitted dose curve; in most records, active means well fitted inhibition curve with a large enough effect; inconclusive means small, poorly fitted or top-dose-only effect, or effect the other way; inactive means flat fitted curve, though single readings scatter. Potencies of inconclusive entries are doubtful fits and often do not repeat.
Potency means the concentration at half of the fitted maximal effect.

Experiment: Nrf2 qHTS screen for inhibitors; further: nearly all actives have a fitted effect of over 60% in size
Details: A549 ARE-Fluc reporter, luciferase luminescence, 18-24 h; series mostly up to 46 µM
In short: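 Nrf2 function is reported as luminescence of an ARE-controlled luciferase in A549 cells. Compounds were tested at several concentrations, and a CellTiter-Fluor read on the same wells flagged cytotoxicity.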
With `Cc1noc2ncnc(NCc3cccc(Cl)c3)c12` the Potency was inconclusive: 25.9 µM [falling, partial curve, poor fit]. In the case of `O=C(Nc1ccc(Cl)c(S(=O)(=O)N2CCCCC2)c1)C1=COCCO1`, the Potency is reported as inconclusive: 25.9 µM [falling, single point]. In the case of `CS(=O)(=O)N1CCc2cc(C(=O)NCc3ccccc3)ccc21`, the Potency is reported as “inactive”. In the case of `O=C(c1ccco1)N1CCN(S(=O)(=O)c2cccs2)CC1`, the Potency is reported as inconclusive: 0.0021 µM [falling, full curve, poor fit]. For `Cc1ccc(N2C(=O)CC(Sc3ccccc3C(=O)O)C2=O)cc1` (stereo not drawn), the Potency was “inactive”. With `Fc1ccc(/C=N/Nc2nc(-c3cccnc3)nc3ccccc23)cc1` the Potency was inconclusive: 20.6 µM [falling, partial curve, poor fit]. In the case of `CCc1ccccc1NC(=O)N1CCC(NC(=O)C(Cc2ccccc2)NC(C)=O)CC1` (stereo not drawn), the Potency is reported as “inactive”. In the case of `Cc1nnc(SCC(=O)Nc2ccccc2)c2ccccc12`, the Potency is reported as inconclusive: 8.2 µM [falling, partial curve]. In the case of `CCOC(=O)c1ccc(S(=O)(=O)Nc2ccc(N3CCOCC3)cc2)cc1`, the Potency is reported as inconclusive: 29.1 µM [activator, single point]. In the case of `Cn1c(C(=O)N2CCCC(C(=O)N3CCN(C(=O)c4ccco4)CC3)C2)cc2sccc21` (stereo not drawn), the Potency is reported as inconclusive: 14.6 µM [falling, partial curve, poor fit]. In the case of `CCOC(=O)c1ccc(CC(=O)c2ccc(O)cc2O)o1`, the Potency is reported as inconclusive: 32.6 µM [falling, single point]. With `CC1CCN(S(=O)(=O)c2cccc(C(=O)NCC3CCCO3)c2)CC1` (stereo not drawn) the Potency was active: 13 µM. For `COc1ccc(/C=C/C(=O)Oc2cccc(/C=N/NC(=O)c3cccc(F)c3)c2)cc1`, the Potency was inconclusive: 1.64 µM [activator, full curve, poor fit]. For `O=C(OCC(=O)N1CCCC1)c1cc(=O)c2ccccc2o1`, the Potency was “inactive”. For `Cc1cccn2c(=O)c3cc(C(=O)NCc4ccccc4Cl)sc3nc12`, the Potency was “inactive”. In the case of `COc1ccc(OCc2cc(C(=O)N3CCCC(OC)C3)no2)c2ccccc12` (stereo not drawn), the Potency is reported as inconclusive: 10.3 µM [activator, partial curve]. In the case of `Cc1ccc(NC(=O)CCNC(=O)Nc2ccccc2)cc1S(=O)(=O)N(C)C`, the Potency is reported as inconclusive: 20.6 µM [falling, partial curve, poor fit]. With `COc1cccc(C2C(C(=O)OCc3ccccc3)=C(C)Nc3ncnn32)c1OC` (stereo not drawn) the Potency was inconclusive: 25.9 µM [falling, single point]. For `CN=c1scc(-c2ccccc2F)n1/N=C/c1ccc[nH]1`, the Potency was inconclusive: 0.206 µM [activator, full curve, poor fit]. In the case of `COc1cc(NCc2ccccc2)c2ncn(Cc3ccccc3)c2c1`, the Potency is reported as inconclusive: 29.1 µM [falling, partial curve, poor fit]. For `Cc1cc(NC2CCCC2)n2ncc(-c3ccccc3)c2n1`, the Potency was inconclusive: 0.517 µM [activator, full curve]. With `CCN(Cc1ccccc1)S(=O)(=O)c1cc(C(=O)NC(C)C2CC3CCC2C3)ccc1OC` (stereo not drawn) the Potency was inconclusive: 18.4 µM [falling, single point]. With `COc1ccc(C)cc1NC(=O)C1CCCN(S(=O)(=O)c2ccc(-n3cnnn3)cc2)C1` (stereo not drawn) the Potency was inconclusive: 9.2 µM [falling, partial curve, poor fit]. With `O=C(CCCc1ccccn1)c1cccc2ccccc12` the Potency was inconclusive: 9.2 µM [activator, partial curve]. With `Oc1ccccc1N=Cc1c(O)ccc2oc3c(c12)CCCC3` the Potency was inconclusive: 29.1 µM [falling, single point]. In the case of `CCCOC(=O)c1cccc(Nc2nc(-c3cccnc3)nc3ccccc23)c1`, the Potency is reported as inconclusive: 29.1 µM [activator, single point]. In the case of `S=C1NC[C@H](c2ccccc2)N1CC1CCCCC1`, the Potency is reported as inconclusive: 29.1 µM [falling, single point]. For `CCOC(=O)c1ccc(NS(=O)(=O)c2ccc3c(c2)CCCN3C(C)=O)cc1`, the Potency was inconclusive: 16.4 µM [falling, partial curve, poor fit]. With `COc1cc(OC)c(OC)cc1/C=C1\CC(C)C/C(=C\c2cc(OC)c(OC)cc2OC)C1=O` (stereo not drawn) the Potency was inconclusive: 23.1 µM [falling, single point]. With `CCN(C(=O)c1cccc(S(=O)(=O)N(C)C)c1)C12CC3CC(CC(C3)C1)C2` the Potency was active: 20.6 µM. In the case of `CCOC(Cn1cc(C)c(=O)[nH]c1=O)OCC`, the Potency is reported as inconclusive: 4.61 µM [falling, single point]. For `COc1ccc([N+](=O)[O-])cc1NCc1ccccc1C`, the Potency was inconclusive: 23.1 µM [activator, partial curve]. For `CC1CCN(C(=O)Cn2cnc3c(cnn3C(C)(C)C)c2=O)CC1`, the Potency was inconclusive: 25.9 µM [activator, partial curve]. For `O=C(Cn1cnc([N+](=O)[O-])n1)N/N=C/c1ccc(O)cc1O`, the Potency was inconclusive: 29.1 µM [falling, single point]. In the case of `O=C(COc1ccc([N+](=O)[O-])cc1Cl)N1CCc2ccccc21`, the Potency is reported as “inactive”. In the case of `CC1(C)NC(=O)N(CCOCCOc2c(Cl)cc(Cl)cc2Cl)C1=O`, the Potency is reported as inconclusive: 0.13 µM [activator, full curve, poor fit]. In the case of `Cc1ccccc1NC(=O)Cn1nc(-c2ccc(F)cc2)c2cnc3ccccc3c21`, the Potency is reported as “inactive”. In the case of `COc1ccc2nc3c(nc2c1)CCCC3`, the Potency is reported as inconclusive: 8.2 µM [activator, partial curve, poor fit]. With `O=C(C1CCCN(S(=O)(=O)c2cccs2)C1)N1CCc2ccccc2C1` (stereo not drawn) the Potency was inconclusive: 20.6 µM [falling, single point]. In the case of `COc1cccc(N2CCN(C(=O)c3cccc(NC4=NC5CS(=O)(=O)CC5S4)c3)CC2)c1` (stereo not drawn), the Potency is reported as “inactive”. In the case of `CCN(C(=O)CSc1nnc(Nc2ccccc2C)s1)C1CCS(=O)(=O)C1` (stereo not drawn), the Potency is reported as “inactive”. In the case of `O=C(NCc1ccccn1)Nc1cccc(NC(=O)NCc2ccccn2)c1`, the Potency is reported as inconclusive: 16.4 µM [activator, partial curve, poor fit]. With `Cn1c(SCC(=O)NCc2ccc3c(c2)OCO3)nc2scc(-c3cccs3)c2c1=O` the Potency was inconclusive: 14.6 µM [falling, partial curve].
